PubChem BioAssay AID1508588 | Peter MacCallum Cancer Centre – 2020
Shown is a random part of about 18,000 deposited reagents. Of all reagents, 790 (4.4%) were called active. 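Calls rest on a combination of fold-change classes in drug and vehicle arms, not all shown here.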

Purpose: 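Genome-wide search for knock-downs that heighten vemurafenib action in melanoma cells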 (primary screen)
Cell system: human WM266.4 melanoma cells (BRAF V600 mutant)
Reagents: siRNA pool against human genes, 40 nM
Time to read-out: 96 h from transfection to read-out
Conditions: vemurafenib 300 nM (about IC25), added 48 h after transfection, for 48 h; comparison arm got DMSO vehicle only
Detection: 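Ratios to non-targeting siRNA for cell gain, counted as DAPI nuclei after minus before drug and averaged over two replicates, and for absorbance-read medium lactate per cell; both binned into fold-change classes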
Scale: cell gain with vemurafenib: higher = more cell gain than with non-targeting siRNA; lactate per cell with vemurafenib: higher = more lactate made per cell
Call rule: 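Enhancement is called by pairing each knock-down's vehicle-arm and drug-arm fold-change classes for viability or glycolysis; which class combinations qualify is not given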
Calls: active = enhances vemurafenib effect; inactive = no enhancement seen

What did the screen give for ANXA6?
cell gain with vemurafenib: 0.68; lactate per cell with vemurafenib: 1.24; Outcome: inactive

With CGA, what does the deposit list?
cell gain with vemurafenib: 0.45; lactate per cell with vemurafenib: 0.36; Outcome: inactive

For SLC16A6, how do the results read?
cell gain with vemurafenib: 0.68; lactate per cell with vemurafenib: 0.32; Outcome: inactive

How did the screen score SLC22A2?
cell gain with vemurafenib: 0.64; lactate per cell with vemurafenib: 0.73; Outcome: inactive

For INTS4, what was measured?
cell gain with vemurafenib: 0.34; lactate per cell with vemurafenib: 0.88; Outcome: inactive

How did the screen score SLC9A4?
cell gain with vemurafenib: 0.43; lactate per cell with vemurafenib: 1.42; Outcome: inactive

For LMAN1L, what was measured?
cell gain with vemurafenib: 0.59; lactate per cell with vemurafenib: 1.12; Outcome: inactive

What did the screen give for LBHD1?
cell gain with vemurafenib: 0.16; lactate per cell with vemurafenib: 2.31; Outcome: inactive

What is on record for ABL2?
cell gain with vemurafenib: 0.37; lactate per cell with vemurafenib: 1.12; Outcome: inactive

How did the screen score FXYD5?
cell gain with vemurafenib: 0.44; lactate per cell with vemurafenib: 1.38; Outcome: inactive

How did the screen score DNASE1L2?
cell gain with vemurafenib: 0.9; lactate per cell with vemurafenib: 0.77; Outcome: inactive

What did the screen give for ZNF532?
cell gain with vemurafenib: 0.48; lactate per cell with vemurafenib: 0.85; Outcome: inactive

For STRA8, how do the results read?
cell gain with vemurafenib: 0.27; lactate per cell with vemurafenib: 1.17; Outcome: inactive

What did the screen give for SND1-IT1?
cell gain with vemurafenib: 0.54; lactate per cell with vemurafenib: 0.45; Outcome: inactive

How did the screen score PCSK1N?
cell gain with vemurafenib: 0.35; lactate per cell with vemurafenib: 2.16; Outcome: inactive

Which result is listed for ZNF584?
cell gain with vemurafenib: 0.53; lactate per cell with vemurafenib: 0.53; Outcome: inactive

What did the screen give for ZDHHC24?
cell gain with vemurafenib: 0.16; lactate per cell with vemurafenib: 1.11; Outcome: inactive

With GRIN3A, what was measured?
cell gain with vemurafenib: 0.97; lactate per cell with vemurafenib: 0.57; Outcome: inactive

With RPA1, what was measured?
cell gain with vemurafenib: -0.1; lactate per cell with vemurafenib: 2.04; Outcome: inactive

With RELB, how do the results read?
cell gain with vemurafenib: 0.44; lactate per cell with vemurafenib: 0.9; Outcome: inactive

For NRK, what does the deposit list?
cell gain with vemurafenib: 1.08; lactate per cell with vemurafenib: 0.94; Outcome: inactive

What is on record for GJA4?
cell gain with vemurafenib: 1.27; lactate per cell with vemurafenib: 0.68; Outcome: inactive

Which result is listed for HMGN4?
cell gain with vemurafenib: 0.05; lactate per cell with vemurafenib: 1.66; Outcome: inactive

What is on record for PDE10A?
cell gain with vemurafenib: 0.52; lactate per cell with vemurafenib: 0.72; Outcome: inactive

How did the screen score SH3BGRL2?
cell gain with vemurafenib: 0.55; lactate per cell with vemurafenib: 1.15; Outcome: inactive

What is on record for CSTF3?
cell gain with vemurafenib: 0.46; lactate per cell with vemurafenib: 0.27; Outcome: inactive

What is on record for VPS35?
cell gain with vemurafenib: 0.25; lactate per cell with vemurafenib: 1.36; Outcome: inactive
